Laboratory results: PMC12457717
Results are given in words; binding and its absence hold for the method and conditions named. Binding seen in cells or lysates may run through a third protein. Some entries that bind do so weakly or less than the wild type. For some assays here: Where a sequence is shown, tags or fusion partners need not be part of it.

T1: Flag-FBXO32 (F-Box Protein 32) (UniProt Q969P5)
T1 sequence: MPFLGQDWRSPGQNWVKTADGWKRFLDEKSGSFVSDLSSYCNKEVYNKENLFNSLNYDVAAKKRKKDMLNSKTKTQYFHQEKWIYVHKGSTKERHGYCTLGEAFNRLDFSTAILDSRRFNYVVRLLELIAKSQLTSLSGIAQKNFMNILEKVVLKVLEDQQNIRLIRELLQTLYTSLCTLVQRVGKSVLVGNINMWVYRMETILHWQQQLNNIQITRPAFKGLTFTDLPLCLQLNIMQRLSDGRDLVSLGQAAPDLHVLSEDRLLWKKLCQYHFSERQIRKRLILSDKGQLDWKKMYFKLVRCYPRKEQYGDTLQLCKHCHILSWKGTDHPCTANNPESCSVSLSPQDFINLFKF

T2: F-Box Protein 32 (FBXO32), endogenous in MHCC97H cells (human (endogenous in MHCC97H)) (UniProt Q969P5)
T2 sequence: T1 sequence

B1: pleckstrin homology domain leucine-rich repeat protein phosphatase 2 (PHLPP2), in HEK293T cells (protein, UniProt Q6ZVD8 1-1323)
chain: MKRNGSRNCLNRRSRFGSRERDWLREDVKRGCVYLYGADTTTATTTTTTSSSSSSSSSSSDLHLVLCTVETPASEICAGEGRESLYLQLHGDLVRRLEPTERPLQIVYDYLSRLGFDDPVRIQEEATNPDLGCMIRFYGEKPCHMDRLDRILLSGIYNVRKGKTQLHKWAERLVVLCGTCLIVSSVKDCQTGKMHILPLVGGKIEEVKRRQYSLAFSSAGAQAQTYHVSFETLAEYQRWQRQASKVVSQRISTVDLSCYSLEEVPEHLFYSQDITYLNLRHNFMQLERPGGLDTLYKFSQLKGLNLSHNKLGLFPILLCEISTLTELNLSCNGFHDLPSQIGNLLNLQTLCLDGNFLTTLPEELGNLQQLSSLGISFNNFSQIPEVYEKLTMLDRVVMAGNCLEVLNLGVLNRMNHIKHVDLRMNHLKTMVIENLEGNKHITHVDLRDNRLTDLDLSSLCSLEQLHCGRNQLRELTLSGFSLRTLYASSNRLTAVNVYPVPSLLTFLDLSRNLLECVPDWACEAKKIEVLDVSYNLLTEVPVRILSSLSLRKLMLGHNHVQNLPTLVEHIPLEVLDLQHNALTRLPDTLFSKALNLRYLNASANSLESLPSACTGEESLSMLQLLYLTNNLLTDQCIPVLVGHLHLRILHLANNQLQTFPASKLNKLEQLEELNLSGNKLKTIPTTIANCKRLHTLVAHSNNISIFPEILQLPQIQFVDLSCNDLTEILIPEALPATLQDLDLTGNTNLVLEHKTLDIFSHITTLKIDQKPLPTTDSTVTSTFWSHGLAEMAGQRNKLCVSALAMDSFAEGVGAVYGMFDGDRNEELPRLLQCTMADVLLEEVQQSTNDTVFMANTFLVSHRKLGMAGQKLGSSALLCYIRPDTADPASSFSLTVANVGTCQAVLCRGGKPVPLSKVFSLEQDPEEAQRVKDQKAIITEDNKVNGVTCCTRMLGCTYLYPWILPKPHISSTPLTIQDELLILGNKALWEHLSYTEAVNAVRHVQDPLAAAKKLCTLAQSYGCQDNVGAMVVYLNIGEEGCTCEMNGLTLPGPVGFASTTTIKDAPKPATPSSSSGIASEFSSEMSTSEVSSEVGSTASDEHNAGGLDTALLPRPERRCSLHPTPTSGLFQRQPSSATFSSNQSDNGLDSDDDQPVEGVITNGSKVEVEVDIHCCRGRDLENSPPLIESSPTLCSEEHARGSCFGIRRQNSVNSGMLLPMSKDRMELQKSPSTSCLYGKKLSNGSIVPLEDSLNLIEVATEVPKRKTGYFAAPTQMEPEDQFVVPHDLEEEVKEQMKQHQDSRLEPEPHEEDRTEPPEEFDTAL
B2: pleckstrin homology domain leucine-rich repeat protein phosphatase 2 (PHLPP2), endogenous in MHCC97H cells (protein, UniProt Q6ZVD8 1-1323)
chain: B1 chain

Columns and labels:
[1] = target: T1, Flag-FBXO32 (F-Box Protein 32); assay: co-IP; anti-Flag antibody IP from lysate of Flag-FBXO32-overexpressing HEK293T cells; ice-cold IP buffer, antibody-conjugated beads overnight at 4°C, western blotting
[2] = target: T2, F-Box Protein 32 (FBXO32), endogenous in MHCC97H cells (human (endogenous in MHCC97H)); assay: co-IP; endogenous IP from MHCC97H cell lysate; antibody-conjugated beads overnight at 4°C, western blotting; which protein was precipitated is not told

Binder	binding [1]	binding [2]
B1	binds	–
B2	–	binds
